Source: publication PMC10007849
No constants are given. Whether binding was seen depends on the method and setting. Binding seen in cells or lysates may run through a third protein. Some binding calls cover weakened binding; strength is not graded here.

Protein sequences, listed by entry. Tags and fused reporters are not part of them. Residues count along the entry.
UniProt P80188, residues 21-198: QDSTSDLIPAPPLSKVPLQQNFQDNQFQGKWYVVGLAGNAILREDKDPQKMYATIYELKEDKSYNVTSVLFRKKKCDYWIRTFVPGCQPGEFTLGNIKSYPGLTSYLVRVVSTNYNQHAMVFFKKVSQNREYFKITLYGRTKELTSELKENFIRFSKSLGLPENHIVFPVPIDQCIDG

Tests used:
[1] = target: SFB-LCN2 (lipocalin-2 with SFB tag) (human) (UniProt P80188); experiment: co-IP; mutual co-IP from cell lysates with immunoblotting; S-protein agarose beads overnight at 4 °C for SFB-LCN2, or antibodies for two hours and then Protein A/G magnetic beads; washed three times with NETN buffer
[2] = target: Epidermal growth factor receptor (EGFR) (human (endogenous in CAL-27)) (UniProt P00533); experiment: as above

| binding [1] | binding [2] | Substance |
| --- | --- | --- |
| binds | – | Epidermal growth factor receptor (EGFR) (from UniProt P00533 25-1210) |
| – | binds | SFB-LCN2 (lipocalin-2 with SFB tag) (from UniProt P80188 21-198) |
